Results on one substance are retold here after PMC7507032.

These are yes or no findings as the source states them, for the method shown. Binding seen in cells or lysates may run through a third protein. Tags and fused reporters may be left off the sequences shown.

The experiment has as its target T1, Myc-TEX10 (testis expressed 10) (UniProt Q9NXF1).
T1 sequence: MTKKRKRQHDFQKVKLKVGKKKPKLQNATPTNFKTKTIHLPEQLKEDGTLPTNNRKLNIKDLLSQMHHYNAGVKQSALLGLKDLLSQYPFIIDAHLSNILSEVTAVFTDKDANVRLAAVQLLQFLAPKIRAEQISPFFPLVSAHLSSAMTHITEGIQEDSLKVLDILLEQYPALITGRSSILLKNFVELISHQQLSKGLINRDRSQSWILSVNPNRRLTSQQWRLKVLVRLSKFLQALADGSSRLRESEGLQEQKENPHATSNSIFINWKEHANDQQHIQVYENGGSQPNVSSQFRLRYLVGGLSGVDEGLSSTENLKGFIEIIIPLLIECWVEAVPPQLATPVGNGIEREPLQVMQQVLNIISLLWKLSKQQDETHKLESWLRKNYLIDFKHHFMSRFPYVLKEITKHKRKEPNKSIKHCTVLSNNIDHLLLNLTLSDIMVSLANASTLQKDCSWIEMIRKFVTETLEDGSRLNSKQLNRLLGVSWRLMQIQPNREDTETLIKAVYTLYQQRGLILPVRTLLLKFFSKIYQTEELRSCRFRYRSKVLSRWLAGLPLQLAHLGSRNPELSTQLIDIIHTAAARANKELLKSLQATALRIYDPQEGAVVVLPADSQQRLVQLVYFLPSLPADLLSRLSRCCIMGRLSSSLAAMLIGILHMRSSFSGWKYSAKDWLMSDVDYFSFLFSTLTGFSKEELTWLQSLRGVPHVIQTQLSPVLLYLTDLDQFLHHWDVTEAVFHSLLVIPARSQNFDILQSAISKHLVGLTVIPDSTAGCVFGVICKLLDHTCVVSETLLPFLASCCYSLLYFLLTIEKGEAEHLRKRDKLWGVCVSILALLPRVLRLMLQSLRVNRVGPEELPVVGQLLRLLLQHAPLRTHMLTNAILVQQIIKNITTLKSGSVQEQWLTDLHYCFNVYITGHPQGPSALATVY
Put plainly: co-IP; HEK293T cells cotransfected with Flag-tagged proteins and Myc-TEX10; lysates immunoprecipitated with anti-Myc, immunoblot with anti-Flag and anti-Myc; antibody 1 h at 4 °C, protein G beads overnight.

With “Flag-RELA-C (transcription activation domain only) (domain or fragment)”, the binding result was “no binding”.
